Binding data for four substances are collected here from paper PMC3690481.

The chains behind the UniProt entries cited, without tags or fusion partners.
UniProt Q9Y6K9: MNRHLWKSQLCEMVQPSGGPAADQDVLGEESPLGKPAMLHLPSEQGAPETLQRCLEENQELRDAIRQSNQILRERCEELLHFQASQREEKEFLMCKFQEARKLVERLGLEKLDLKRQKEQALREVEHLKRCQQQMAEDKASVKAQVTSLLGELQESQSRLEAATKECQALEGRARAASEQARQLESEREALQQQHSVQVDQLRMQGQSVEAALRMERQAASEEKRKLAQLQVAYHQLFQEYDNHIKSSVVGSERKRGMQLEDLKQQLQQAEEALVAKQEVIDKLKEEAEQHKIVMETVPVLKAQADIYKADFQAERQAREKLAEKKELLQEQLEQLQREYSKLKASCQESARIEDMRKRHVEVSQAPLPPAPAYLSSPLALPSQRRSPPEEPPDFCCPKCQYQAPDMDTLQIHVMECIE
UniProt Q96BN8: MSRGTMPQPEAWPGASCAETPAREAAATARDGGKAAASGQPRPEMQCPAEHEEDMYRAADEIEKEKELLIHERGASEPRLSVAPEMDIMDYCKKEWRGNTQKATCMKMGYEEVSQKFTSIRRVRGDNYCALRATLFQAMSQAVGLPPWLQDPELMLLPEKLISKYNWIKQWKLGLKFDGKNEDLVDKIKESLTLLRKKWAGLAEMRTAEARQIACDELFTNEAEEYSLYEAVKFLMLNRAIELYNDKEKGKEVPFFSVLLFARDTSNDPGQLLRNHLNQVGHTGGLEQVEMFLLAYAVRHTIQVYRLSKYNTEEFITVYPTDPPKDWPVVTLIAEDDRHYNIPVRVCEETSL
UniProt Q96EP0: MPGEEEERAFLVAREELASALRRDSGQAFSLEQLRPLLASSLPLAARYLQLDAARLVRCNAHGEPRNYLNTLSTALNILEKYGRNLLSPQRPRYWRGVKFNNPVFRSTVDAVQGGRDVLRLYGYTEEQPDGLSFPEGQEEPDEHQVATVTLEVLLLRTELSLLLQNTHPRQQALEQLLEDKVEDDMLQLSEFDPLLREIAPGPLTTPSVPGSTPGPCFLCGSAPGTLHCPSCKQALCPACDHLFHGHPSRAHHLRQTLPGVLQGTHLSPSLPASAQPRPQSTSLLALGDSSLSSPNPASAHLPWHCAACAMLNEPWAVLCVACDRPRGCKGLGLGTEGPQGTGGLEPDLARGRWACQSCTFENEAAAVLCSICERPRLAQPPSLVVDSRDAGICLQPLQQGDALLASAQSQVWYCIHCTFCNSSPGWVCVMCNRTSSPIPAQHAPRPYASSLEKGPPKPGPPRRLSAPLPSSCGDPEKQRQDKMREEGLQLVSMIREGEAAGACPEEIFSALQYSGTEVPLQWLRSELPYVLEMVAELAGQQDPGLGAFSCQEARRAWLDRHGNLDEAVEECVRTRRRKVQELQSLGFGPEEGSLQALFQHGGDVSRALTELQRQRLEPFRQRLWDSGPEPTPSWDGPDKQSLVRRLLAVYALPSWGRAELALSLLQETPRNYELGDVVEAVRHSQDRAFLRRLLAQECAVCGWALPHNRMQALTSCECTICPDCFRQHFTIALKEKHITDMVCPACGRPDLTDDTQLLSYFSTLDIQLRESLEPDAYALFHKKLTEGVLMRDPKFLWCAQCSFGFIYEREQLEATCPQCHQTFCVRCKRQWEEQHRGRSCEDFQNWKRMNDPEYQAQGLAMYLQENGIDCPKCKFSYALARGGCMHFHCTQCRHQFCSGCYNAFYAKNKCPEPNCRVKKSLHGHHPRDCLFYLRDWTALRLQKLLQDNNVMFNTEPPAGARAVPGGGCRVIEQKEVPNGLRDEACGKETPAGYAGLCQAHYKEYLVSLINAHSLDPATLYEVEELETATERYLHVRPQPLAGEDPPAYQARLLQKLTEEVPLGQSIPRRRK

Test [1] concerns the target GST-tagged NEMO wild-type (UniProt Q9Y6K9). The test can be described thus: pull-down; GST-NEMO transfected with or without LUBAC into doxycycline-induced control or OTULIN-overexpressing T-REx 293 cells; lysate in PBS, 0.1% Triton X-100, 2 mM NEM on GSH sepharose overnight; western blot.
In test [2] the target is T1, endogenous SHARPIN (human (endogenous in HEK 293ET)) (UniProt Q9H0F6).
T1 sequence: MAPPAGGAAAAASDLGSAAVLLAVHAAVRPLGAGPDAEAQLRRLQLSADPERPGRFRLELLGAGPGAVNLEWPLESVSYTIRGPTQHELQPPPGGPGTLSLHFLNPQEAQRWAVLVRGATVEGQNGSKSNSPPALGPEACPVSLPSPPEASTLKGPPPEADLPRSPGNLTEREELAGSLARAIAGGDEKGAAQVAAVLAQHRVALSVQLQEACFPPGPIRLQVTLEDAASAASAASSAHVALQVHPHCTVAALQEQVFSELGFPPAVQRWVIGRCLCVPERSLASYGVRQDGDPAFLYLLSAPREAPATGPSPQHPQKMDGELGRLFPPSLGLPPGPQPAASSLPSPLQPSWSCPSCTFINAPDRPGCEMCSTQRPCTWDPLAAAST
The test can be described thus: co-IP; IP of endogenous SHARPIN, unstimulated and after TNFα (100 ng/ml); western blot. For orientation: A western blot detects proteins with antibodies after separation by electrophoresis.

Results are given in words; binding and its absence hold for the method and conditions named. In cells and extracts the contact can be indirect. Some binding calls cover weakened binding; strength is not graded here.

As for “MRGS6His-tagged OTULIN (from UniProt Q96BN8 1-352) (enzyme)”, the binding entry in test [1] is reported as “binds”.

Regarding “HOIP (transfected LUBAC component) (from UniProt Q96EP0 1-1072) (enzyme)”, the binding entry in test [1] is “binds”.

“HOIL-1L (transfected LUBAC component) (from UniProt Q9BYM8-1 1-510) (enzyme)”: the binding entry in test [1] is recorded as “binds”.

With “endogenous HOIP (from UniProt Q96EP0 1-1072) (enzyme)”, the binding entry in test [2] is on record as “binds”.
